Values of other authors as cited in patent US12534530B2, “Combination of a PD-1 antagonist and a VEGFR inhibitor for treating cancer” (PFIZER INC., priority 2014, dated 2026).

Assays:
[1] = tested on: vascular endothelial growth factor (VEGF) receptors 1, 2 and 3; conditions: qualitative statement
endothelial cell = conditions: Hu-Lowe et al. 2008; Solowiej et al. 2009

inhibitor of VEGF receptors 1, 2 and 3 [1]: potent and selective inhibitor
Compound: CNC(=O)c1ccccc1Sc1ccc2c(/C=C/c3ccccn3)n[nH]c2c1 [Axitinib, N-methyl-2-[3-((E)-2-pyridin-2-yl-vinyl)-1H-indazol-6-ylsulfanyl]-benzamide]
inhibition of VEGF-mediated endothelial cell proliferation and survival (endothelial cell): potently inhibit
